Results are given in words; binding and its absence hold for the method and conditions named. In cells and extracts the contact can be indirect. Some entries that bind do so weakly or less than the wild type.

Chains of the proteins cited; added tags and fusions are not shown.
UniProt P35222: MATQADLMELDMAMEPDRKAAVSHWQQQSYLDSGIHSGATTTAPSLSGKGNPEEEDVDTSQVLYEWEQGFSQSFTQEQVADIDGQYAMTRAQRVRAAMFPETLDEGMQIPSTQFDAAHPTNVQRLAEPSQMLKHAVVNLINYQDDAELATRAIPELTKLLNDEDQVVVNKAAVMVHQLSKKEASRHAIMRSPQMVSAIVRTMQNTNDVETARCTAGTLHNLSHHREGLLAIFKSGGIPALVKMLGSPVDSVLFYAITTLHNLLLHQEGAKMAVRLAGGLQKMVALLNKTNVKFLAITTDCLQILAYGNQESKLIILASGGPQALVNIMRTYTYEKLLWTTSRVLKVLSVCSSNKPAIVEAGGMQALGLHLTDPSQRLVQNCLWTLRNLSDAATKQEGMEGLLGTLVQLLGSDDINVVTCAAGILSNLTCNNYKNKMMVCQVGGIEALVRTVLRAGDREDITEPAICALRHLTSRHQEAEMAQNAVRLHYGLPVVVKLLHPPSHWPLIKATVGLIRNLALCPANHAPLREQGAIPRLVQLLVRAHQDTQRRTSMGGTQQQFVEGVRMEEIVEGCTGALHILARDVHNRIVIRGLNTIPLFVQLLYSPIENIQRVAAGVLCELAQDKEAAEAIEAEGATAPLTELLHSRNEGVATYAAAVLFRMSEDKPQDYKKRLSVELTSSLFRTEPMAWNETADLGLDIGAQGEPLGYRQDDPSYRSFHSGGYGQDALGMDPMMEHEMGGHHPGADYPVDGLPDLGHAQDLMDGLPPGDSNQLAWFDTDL

The target of this experiment is β-catenin (human (endogenous in HUVECs)) (UniProt P35222). The experiment in a line: co-IP; HUVEC lysate (25 mmol/L Tris-HCl pH 7.4, 150 mmol/L NaCl, 0.5% NP-40, 0.5% sodium deoxycholate, 5 mmol/L EDTA); antibody against β-catenin or control IgG overnight at 4°C, protein A or G beads, Western blot; static cells, or cells exposed to PS or OS for 6 h.

Turning to Nesprin1 (from UniProt Q8NF91 1-8797), the binding entry is “binds”.

These data come from paper PMC7330101.
